Results are given in words; binding and its absence hold for the method and conditions named. In cells and extracts the contact can be indirect. Some entries that bind do so weakly or less than the wild type.

The chains behind the UniProt entries cited, without tags or fusion partners.
UniProt Q96CW5: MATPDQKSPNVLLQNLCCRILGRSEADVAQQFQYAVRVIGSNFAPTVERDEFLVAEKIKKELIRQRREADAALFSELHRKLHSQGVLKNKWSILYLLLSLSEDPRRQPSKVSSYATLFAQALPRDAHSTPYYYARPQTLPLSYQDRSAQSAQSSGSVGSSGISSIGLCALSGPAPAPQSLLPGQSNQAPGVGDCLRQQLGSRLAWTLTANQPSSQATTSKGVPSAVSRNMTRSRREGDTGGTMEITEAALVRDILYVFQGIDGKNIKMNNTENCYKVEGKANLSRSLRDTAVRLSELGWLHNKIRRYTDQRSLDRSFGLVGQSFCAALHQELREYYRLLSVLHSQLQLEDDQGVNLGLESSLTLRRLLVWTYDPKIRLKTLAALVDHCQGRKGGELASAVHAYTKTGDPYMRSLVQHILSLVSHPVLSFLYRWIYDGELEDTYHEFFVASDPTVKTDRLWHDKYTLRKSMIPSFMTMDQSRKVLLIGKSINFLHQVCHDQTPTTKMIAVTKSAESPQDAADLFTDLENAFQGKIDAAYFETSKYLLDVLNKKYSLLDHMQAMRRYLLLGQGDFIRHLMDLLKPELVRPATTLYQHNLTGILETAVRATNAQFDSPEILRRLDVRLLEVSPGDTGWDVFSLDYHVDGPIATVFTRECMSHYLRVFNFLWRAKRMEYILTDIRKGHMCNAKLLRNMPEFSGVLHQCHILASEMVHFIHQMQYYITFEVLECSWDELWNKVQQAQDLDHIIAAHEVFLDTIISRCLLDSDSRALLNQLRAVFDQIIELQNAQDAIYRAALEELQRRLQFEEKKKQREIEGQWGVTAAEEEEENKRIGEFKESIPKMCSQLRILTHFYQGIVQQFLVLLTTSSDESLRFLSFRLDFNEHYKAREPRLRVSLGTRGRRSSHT
UniProt Q9UGJ1: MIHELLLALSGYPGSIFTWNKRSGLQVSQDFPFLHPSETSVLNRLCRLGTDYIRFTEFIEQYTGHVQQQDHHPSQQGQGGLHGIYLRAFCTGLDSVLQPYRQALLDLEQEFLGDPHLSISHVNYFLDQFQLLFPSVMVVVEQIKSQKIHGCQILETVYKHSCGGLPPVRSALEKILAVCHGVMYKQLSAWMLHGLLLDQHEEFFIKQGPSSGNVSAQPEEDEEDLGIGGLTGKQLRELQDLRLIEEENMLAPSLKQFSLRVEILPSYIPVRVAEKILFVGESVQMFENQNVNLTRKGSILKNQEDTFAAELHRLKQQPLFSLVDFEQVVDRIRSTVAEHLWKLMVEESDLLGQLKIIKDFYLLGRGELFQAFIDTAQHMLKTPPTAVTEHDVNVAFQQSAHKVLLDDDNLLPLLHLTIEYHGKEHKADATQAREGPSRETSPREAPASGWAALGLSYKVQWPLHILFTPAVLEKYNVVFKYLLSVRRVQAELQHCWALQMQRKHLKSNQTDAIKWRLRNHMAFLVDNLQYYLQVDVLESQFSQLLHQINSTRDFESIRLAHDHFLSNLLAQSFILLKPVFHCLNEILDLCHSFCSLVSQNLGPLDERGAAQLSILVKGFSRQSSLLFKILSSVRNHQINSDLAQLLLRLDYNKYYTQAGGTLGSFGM

This assay deals with GCP3-GFP-SII (endogenously tagged GCP3) (human (endogenous in HEK293T)) (UniProt Q96CW5). Put plainly: pull-down.

Turning to GCP4 (from UniProt Q9UGJ1 1-667), the binding entry was “binds”.

(Values after paper doi:10.1101/2022.08.03.502613.)
